Laboratory results from patent US9175305B2, “Mutant hydroxyphenylpyruvate dioxygenase polypeptides and methods of use” (Syngenta Participations AG, priority 2009, dated 2015).
Some of these results come from one statement about several compounds together.

Test: catalytic activity and herbicide resistance of mutants of SEQ ID NO:14 in extracts
Format: biochemical, Avena sativa
Conditions: relative to unmutated SEQ ID NO:14
Text: These further mutations can all be optionally combined with the resistance conferring mutations to produce catalytically active variants of HPPD herbicide resistant enzymes of the current invention.

B1: Y287F: Y287F mutant of SEQ ID NO:14 (protein)
chain: MPPTPATATGAAAAAVTPEHAARSFPRVVRVNPRSDRFPVLSFHHVELWCADAASAAGRFSFALGAPLAARSDLSTGNSAHASLLLRSGALAFLFTAPYAPPPQEAATAATASIPSFSADAARTFAAAHGLAVRSVGVRVADAAEAFRVSVAGGARPAFAPADLGHGFGLAEVELYGDVVLRFVSYPDETDLPFLPGFERVSSPGAVDYGLTRFDHVVGNVPEMAPVIDYMKGFLGFHEFAEFTAEDVGTTESGLNSVVLANNSEAVLLPLNEPVHGTKRRSQIQTFLEYHGGPGVQHIALASNDVLRTLREMRARTPMGGFEFMAPPQAKYYEGVRRIAGDVLSEEQIKECQELGVLVDRDDQGVLLQIFTKPVGDRPTFFLEMIQRIGCMEKDEVGQEYQKGGCGGFGKGNFSELFKSIEDYEKSLEVKQSVVAQKS
modifications: mutant HPPD polypeptide
difference of kcat and resistance to sulcotrione from the unmutated enzyme: ≤ 20%

B2: I370V: I370V mutant of SEQ ID NO:14 (protein)
chain: MPPTPATATGAAAAAVTPEHAARSFPRVVRVNPRSDRFPVLSFHHVELWCADAASAAGRFSFALGAPLAARSDLSTGNSAHASLLLRSGALAFLFTAPYAPPPQEAATAATASIPSFSADAARTFAAAHGLAVRSVGVRVADAAEAFRVSVAGGARPAFAPADLGHGFGLAEVELYGDVVLRFVSYPDETDLPFLPGFERVSSPGAVDYGLTRFDHVVGNVPEMAPVIDYMKGFLGFHEFAEFTAEDVGTTESGLNSVVLANNSEAVLLPLNEPVHGTKRRSQIQTYLEYHGGPGVQHIALASNDVLRTLREMRARTPMGGFEFMAPPQAKYYEGVRRIAGDVLSEEQIKECQELGVLVDRDDQGVLLQVFTKPVGDRPTFFLEMIQRIGCMEKDEVGQEYQKGGCGGFGKGNFSELFKSIEDYEKSLEVKQSVVAQKS
modifications: mutant HPPD polypeptide
difference of kcat and resistance to sulcotrione from the unmutated enzyme: ≤ 20%
